Measurements from “University of Dundee, Small-Polar-MMV Screening Library” (2021), ChEMBL document CHEMBL3988442.

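Whole-parasite assay of Trypanosoma brucei over 72 hours; the read-out is not stated. Tested at 30 µM. The record gives no direction; compounds that gave an IC50 in retests scored well above the rest, so higher reads as stronger inhibition. Values scatter widely below zero; nearly all retest evidence comes from the higher of the two concentrations used. Of about 64,000 compounds tested this way, about 940 (1.5%) reached 50% or more in at least one test.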

Values are the deposited “Percent Effect”, in %.
The controls that fix the scale are not given in the record; negative values are as filed.
The compounds are a random part of those screened.

Compound	Percent Effect
CN(C)Cc1ccc(C2CCCCN2C(=O)c2ncccc2O)cc1 (configuration not stated)	-29.41
Cc1nc(N2CCOCC2)nc2c1CCN(C(=O)NC1CCCC1)CC2	-38.52
Cc1ccc(N2CCCC(NC(=O)C(C)(C)C#N)C2=O)cc1 (configuration not stated)	-4.773
Fc1cccc(Cl)c1CN1CCn2c(nnc2C2CC2)C1	4.558
CN(Cc1cnn(C)c1)C(=O)c1cc2ccccc2c(=O)[nH]1	-12.08
Cc1cccc(N2CCN(Cc3nc(CC4CC4)no3)CC2)n1	1.513
CCOc1ccc(CNC(=O)c2cnc(OC)nc2)cc1	-14.95
CNc1nc(C2CCCN2C(C)=O)nc2c1CCN(CC1CC1)C2 (configuration not stated)	33.33
CCn1cc(-c2c(C)c(C3CCOC(C)(C)C3)nc(N)c2C#N)cn1 (configuration not stated)	-13.96
CC(NCCCN1CCCC1=O)c1cc(Br)ccc1F (configuration not stated)	-17.58
CCn1ccnc1CN1CCCN(C(=O)Cn2nc(C)cc2C)CC1	-13.05
O=CO.c1cc2nccc(CC3CCCN(Cc4c[nH]cn4)CC3)c2cn1 (configuration not stated)	-3.631
CCc1nn(C)c(Cl)c1CN1CCCC(c2cc(O)nc(C)n2)C1 (configuration not stated)	-4.971
NC(=O)CN1CCC(C(=O)NCc2nc(-c3ccc(F)cc3)cs2)CC1	-16.53
CCOc1cc2c(cc1CCC(=O)O)CCC2	-10.77
OCCCN1CCCC1c1nc(Cc2ccc(F)cc2)no1 (configuration not stated)	-50.14
COc1ccc(S(=O)(=O)N2CCn3cnc(COCC4CC4)c3C2)cc1	-39.93
COc1ccccc1CN1C[C@@H](F)[C@@H](OCc2nc3ncccc3[nH]2)C1	17.79
Cc1nn(C)c(C)c1CC(=O)N1CCCC(n2ccnc2C)C1 (configuration not stated)	-16.52
Cc1ccc(NCc2cn3c(n2)CN(Cc2ccoc2)CC3)nn1.O=C(O)C(F)(F)F.O=C(O)C(F)(F)F	-53.7
Cc1ccc(OCC2CCCN(C(=O)c3csc(CN(C)C)n3)C2)cc1 (configuration not stated)	-28.51
CCOc1ccccc1C(CC(=O)O)NC(C)=O (configuration not stated)	-13.43
OCCN1CCN(Cc2cnc3c(-c4ccccc4)cnn3c2)CC1	-181.5
CC(C)CN1CCN(C(=O)c2ccn(C)c(=O)c2)CC1	-10.85
COCC[C@]1(O)CCN(S(=O)(=O)c2ccc(C)cc2OC)C[C@H]1C	-53.03
Cc1sc2c(C3CCCNC3)nc(Nc3cccc(F)c3)n2c1C.Cl (configuration not stated)	100.1
[H][C@@]12CCN(C(=O)N(C)C)[C@]1([H])CC[C@H](C(=O)N(C)C)O2	-80.86
CCCc1nc(CNc2ccc(F)c(F)c2)no1	-2.317
COc1ccc(NC(=O)Cn2nc(C)c(C(C)=O)c2C)cc1	101.9
CC(Cn1cccn1)C(=O)N1CCC(Nc2cccnn2)CC1 (configuration not stated)	-16.54
Cc1nc(CN2CCN(C(=O)c3ccc(=O)n(C)c3)CC2)cs1	5.558
Cc1cc(C)c(S(N)(=O)=O)cc1C(=O)NCCN1CCC(C)CC1	7.946
CC(C)N(CCNCc1ccc(C#N)cc1)C1CC1	-28.31
CCn1c(C2CCCN(S(=O)(=O)C3CC3)C2)nn(CCN(C)C)c1=O (configuration not stated)	-8.734
CS(=O)(=O)CCCSc1n[nH]c(-c2ccc3c(c2)CCC3)n1	6.766
COCCN1CCC2(CC1)CC(NC(=O)COC)c1ccccc1O2.O=C(O)C(F)(F)F (configuration not stated)	-14.34
Cn1cc(CNCCNc2ncc(Cl)cc2Cl)cn1	-49.89
COC(=O)c1cccc(-c2c[nH]c(C)n2)c1	-47.99
Cc1nc(NC(=O)COCC(F)(F)F)ccc1Br	2.046
Cc1cc(C)n(CC2CCCN2CCS(=O)(=O)c2ccccc2)n1 (configuration not stated)	-12.57
Cc1nc2cc(O)nn2c(C)c1CCC(=O)N(C)Cc1cscn1	12.88
COCc1cccc(CNC(=O)CNc2ccccc2C(C)=O)c1	-24.59
[H][C@@]12CN(C(=O)c3conc3C)C[C@]1([H])C(=O)N(Cc1cccc(C)c1)C2	-4.494
Cc1cc(C(=O)Nc2ccc3c(c2)N(C)CCN(C)C3)on1	-38.92
Cc1ccc([C@@H]2CN(S(=O)(=O)c3cc(C)ccc3F)C[C@H]2N(C)C)cc1	-0.9039
COc1ccc2nnc(CCCC(=O)NCCC3=CCCCC3)n2n1	11.6
CC(=O)N1CCc2ncn(C)c2C1C(=O)N1CCCC1.O=C(O)C(F)(F)F (configuration not stated)	-23.91
[H][C@]12CCC[C@@]1(COCC1CCOCC1)CN(C(=O)c1ccc(C)o1)C2	-22.84
COc1ccccc1Oc1ncccc1CNC(=O)[C@@H](C)NC(C)=O	-26.65
Cc1ccccc1-n1cc(-c2ccnc(N[C@H](CO)C(C)C)n2)cn1	-10.1
Cc1cccc(CNC[C@H]2Cn3ccnc3CO2)n1	-9.348
COC(=O)CNC(=O)c1ccn(-c2ccc(Cl)c(Cl)c2)n1	-84.95
CN(C)CCOCC1CN(C(=O)c2ccsc2)Cc2ccnn2C1.O=C(O)C(F)(F)F.O=C(O)C(F)(F)F (configuration not stated)	-14.06
CCC[C@@H]1CN(Cc2ccc(N(C)C)nc2)C[C@H]1N(C)C	-25.83
Cc1cc(CN2CCN(CC(O)c3ccccc3)CC2)no1 (configuration not stated)	37.03
Cc1cccc(=O)n1CCC(=O)N1CCC2(CC1)OCCCC2O (configuration not stated)	-12.04
CS(=O)(=O)NCCC(=O)N1Cc2cnc(-c3ccccc3)nc2C1	-46.21
FC(F)(F)COc1ccc(CSCc2ccon2)cn1	1.734
Cc1cnn(CC2CN(CCS(=O)(=O)c3ccccc3)CCO2)c1 (configuration not stated)	-31.68
COC(=O)CCCNC(=O)COc1ccccc1C(F)(F)F	0.9759

The first 4 entries again:

{"compound": "CN(C)Cc1ccc(C2CCCCN2C(=O)c2ncccc2O)cc1", "stereo": "configuration not stated", "Percent Effect": -29.41}
{"compound": "Cc1nc(N2CCOCC2)nc2c1CCN(C(=O)NC1CCCC1)CC2", "Percent Effect": -38.52}
{"compound": "Cc1ccc(N2CCCC(NC(=O)C(C)(C)C#N)C2=O)cc1", "stereo": "configuration not stated", "Percent Effect": -4.773}
{"compound": "Fc1cccc(Cl)c1CN1CCn2c(nnc2C2CC2)C1", "Percent Effect": 4.558}